Laboratory results as given in PubChem BioAssay AID588497 (NMMLSC, 2011).
Among all 360,000 compounds or so, about 780 (0.22%) were called active. The shares of active, inactive and inconclusive entries below differ from those in the screen. No stated cut-off is given here; in the data, active means inhibition above about 35% (passing the limit was not always enough); inconclusive means no clear call, values can overlap the other calls.

tested on: Botulinum neurotoxin type F light chain protease (Clostridium botulinum); assay: BoNT/F light chain protease inhibitors, primary screen, biochemical, flow cytometry, MLPCN library (AID 588497); conditions: Multiplex microsphere protease cleavage assay, at 10 µM, stronger effect = higher value; further: plate controls were buffer without enzyme for full effect and enzyme alone for no effect

Compound | inhibition
COCC(=O)Nc1cc(C)cn(Cc2c(F)cccc2Cl)c1=O | inconclusive: 34.1%
CC(C)(C)OC(=O)NCCCCCc1nnc(SCc2c(F)cccc2Cl)o1 | active: 58.7%
FC(F)(F)c1cccc(Nc2cc(-c3ccccc3)nc3ncnn23)c1 | inconclusive: -21.6%
Cc1cccc(N2CCN(c3nnc(C(F)(F)F)s3)CC2)c1 | inconclusive: -19.9%
CCOC(=O)Cc1[nH]nc2c1C(Cc1ccccc1)C(C#N)=C(N)O2 (configuration not stated) | inconclusive: -15.6%
COc1ccc(CN=C2NC(=O)CC(C(=O)Nc3ccccc3C)S2)cc1 (configuration not stated) | inactive: -5.2%
Cc1c(O)c2ccccc2n(-c2ccccc2)c1=O | inconclusive: 16.1%
N=c1n(CCN2CCCCC2)c2ccccc2n1CC(=O)c1ccc(Cl)c(Cl)c1 | inconclusive: -39.1%
COc1ccc2nc(-c3cccc(N)c3)[nH]c2c1 | inconclusive: -30.9%
COc1ccc(CN2C(=O)NC(=O)/C(=C/c3ccc(OC)c(OC)c3OC)C2=O)cc1 | inconclusive: 3.3%
CCOC(=O)c1c(C)[nH]c(C)c1C(=O)COC(=O)c1nc2nccc(C)n2n1 | inactive: -1.2%
O=C(Nc1cnccn1)Nc1ccccc1F | inactive: -10%
CSc1ccc(N=Nc2c(C)[nH]n(C)c2=O)cc1 | inconclusive: 39.7%
CCCc1c(C(=O)Nc2ccc(OC)cc2)cnn1-c1ccccc1 | inconclusive: 1%
CC1C/C(=N\NC(=S)NCc2ccccc2)CC(C)(C)C1 (configuration not stated) | inactive: -6.4%
CSc1ccccc1C(=O)NCCSc1ccc(C)cc1 | inconclusive: 12.7%
O=C(c1ccc([N+](=O)[O-])cc1)N1CCN(C(=O)c2cccnc2)CC1 | inconclusive: -0.4%
CCOC(=O)CON1C(=O)C(=O)N(OCC(=O)OCC)[C@H]2CCCC[C@H]21 | inconclusive: 101%
CCCCCCN1CC(=O)N2[C@@H](Cc3c([nH]c4ccccc34)C2(C)C)C1=O | inactive: 5.7%
CCOc1ccccc1CNC(=O)C1CCC(=O)N1C(C)C (configuration not stated) | inactive: 6.8%
Cc1[nH]n(-c2cccc3ccccc23)c(=O)c1C=Nc1ccc2[nH]c(=O)[nH]c2c1 | inactive: -8.2%
Cc1nc(Cl)cc(N/N=C/c2ccccc2)n1 | inconclusive: 13.5%
O=C(c1cccc(Cl)c1)N1CCC(=O)N([C@H](COCc2ccccc2)Cc2ccccc2)CC1 | inactive: 4.3%

Shown comma-delimited: 2 of the compounds above.
Compound,inhibition
COCC(=O)Nc1cc(C)cn(Cc2c(F)cccc2Cl)c1=O,inconclusive: 34.1%
CSc1ccc(N=Nc2c(C)[nH]n(C)c2=O)cc1,inconclusive: 39.7%

(next part)

Compound | inhibition
CCC(CO)Oc1cc(NCc2ccccn2)c2ncn(C(C)C)c2c1 (configuration not stated) | inactive: 0.5%
Cc1ccc(S(=O)(=O)NC(C)CCc2ccccc2)cc1C(N)=O (configuration not stated) | inconclusive: -9.5%
COc1ccc(NC(=O)C2C3CC/C=C\CCC32)cc1 (configuration not stated) | inconclusive: -70.6%
O=C(Cn1c(=O)c2cccn2c2ccccc21)Nc1cc(F)ccc1F | inconclusive: -5.4%
CC(C)c1ccc(C2/C(=C(/O)c3ccc(F)cc3)C(=O)C(=O)N2CCCN2CCOCC2)cc1 (configuration not stated) | inconclusive: 12.7%
CCn1c2c(c3cc(Br)ccc31)CCC/C2=N\O | inactive: -23.6%
COc1ccc(N=C2NC(=O)/C(=C/c3ccco3)S2)cc1 | inconclusive: -7.3%
CCOc1ccc(NN=C(C(=O)OC)C(=O)OC)c([N+](=O)[O-])c1 | inconclusive: -8%
c1ccc(-c2ccc(-n3ccnc3)cc2)cc1 | inactive: -1.5%
COc1ccccc1C(=O)NCC(=O)OCC(=O)Nc1cccc(S(=O)(=O)N(C)C)c1 | inactive: -3.9%
COC(=O)c1ccc(CN2CCCC(CO)(Cc3ccccc3F)C2)cc1 (configuration not stated) | inconclusive: -1.8%
O=C(Nc1nc(-c2ccccc2)cs1)c1ccccc1NS(=O)(=O)c1ccc(F)cc1 | inactive: 1.9%
Cc1ccc(N2CCN(CC3CC=CCC3)CC2)cc1 (configuration not stated) | inactive: 2.7%
O=C(/C=C/c1ccccc1)NC(=S)Nc1ncccn1 | inconclusive: -23.5%
NS(=O)(=O)c1ccc(CCNC(=O)CNC(=O)C2CCCCC2)cc1 | inconclusive: 1.4%
CCOC(=O)C1CCCN(/C=C2\SC(=S)N(CC)C2=O)C1 (configuration not stated) | inconclusive: -95.6%
CCCCc1c(-c2ccccc2F)ncn1CCc1ccccc1OC | inactive: -1.2%
Cc1ccnc2nc(C(=O)Nc3nc4ccccc4s3)nn12 | inactive: 1.9%
Cc1ccc(S(N)(=O)=O)cc1NC(=O)/C=C/c1cccs1 | inconclusive: -6.9%
C=CCc1cccc(CNn2cnnc2)c1O | active: 42.6%
CCOC(=O)c1cnc2ccc(C)cc2c1Sc1ccc(F)cc1 | inconclusive: -54.6%
Cc1sc2nc(CN(Cc3ccccc3)C(=O)NC3CCCCC3)[nH]c(=O)c2c1C | active: 38.3%
Cc1c(NC(=O)c2cccnc2)c(=O)n(-c2ccccc2)n1C | active: 58.9%

2 entries picked at random from the list so far:
Compound | inhibition
Cc1ccc(S(N)(=O)=O)cc1NC(=O)/C=C/c1cccs1 | inconclusive: -6.9%
CC1C/C(=N\NC(=S)NCc2ccccc2)CC(C)(C)C1 (configuration not stated) | inactive: -6.4%

The list continues.

Compound | inhibition
Cc1nc2ccsc2c(=O)n1-c1cccc(Cl)c1 | inconclusive: -82.3%
CCCCCCC(=O)N(O)C1CC(=O)N(c2ccc(F)cc2)C1=O (configuration not stated) | inconclusive: 8.6%
Cc1nc(Cl)cc(N/N=C/c2ccc(O)cc2)n1 | inconclusive: -29.4%
COc1cc2c(cc1OC)CN(Cc1ccccc1)CC2 | inconclusive: 3.9%
COc1ccc2nc(/C=N/NC(=O)CCCCCNC(=O)OC(C)(C)C)ccc2c1 | inconclusive: -76.5%
CCN1CCN(C(=O)NS(=O)(=O)c2ccc(C)cc2)CC1 | inactive: 4.9%
Cn1c(CSCC(=O)Nc2ccccc2)nnc1SCc1ccccc1 | inconclusive: -4.1%
CCN(c1ccc(N=Cc2c(O)n(Cc3ccc(OC)cc3)c(=O)c3ccccc23)cc1)C(C)C | active: 52%
COc1ccc(-c2csc(N(C)C(=O)c3cccs3)n2)cc1 | inactive: 1.7%
CC1=CC=CC2=NC(=O)CC(C)(C(=O)N(CC(=O)NC3CCCC3)c3ccccc3C)N12 (configuration not stated) | inactive: -1.3%
COc1cccc(NC(=O)c2cccc(OC)c2OC)c1 | inconclusive: 15.7%
O=C1NC[C@@H](CCCCN2C[C@H](Cc3ccccc3)N(CCc3ccc(O)cc3)C(=O)C2=O)N(Cc2ccccc2)C1=O | inactive: -4%
CCOc1cccc2cc(C(=O)NCc3ccccc3)c(=N)oc12 | inactive: -7.2%
O=C(CSC(=S)N1CCCC1)Nc1ccc(Br)cc1Cl | active: 34.9%
COc1ccccc1-n1c(/C=C/c2ccc(O)cc2)nc2ccccc2c1=O | inconclusive: -10.4%
COc1ccc(OC(=O)Cc2cccc3ccccc23)cc1 | inconclusive: 20.8%
CC(=O)N1CCN(c2ccc(NCc3ccc4c(c3)OCO4)cc2)CC1 | inactive: -67.2%
CCC(C)n1c(O)c(C=NCCc2ccccc2)c(=O)[nH]c1=S (configuration not stated) | inconclusive: -26.6%
COc1ccc(Br)cc1-c1noc(-c2ccccc2)n1 | inconclusive: 27.2%
CCN(CCNC(=O)C1CCN(Cc2nc(-c3cccc(Cl)c3)oc2C)CC1)c1ccccc1 | inactive: -4.4%
COC(=O)CN(C)C(=O)c1ccc2nc(Cc3cccc(Cl)c3)oc2c1 | inconclusive: 23.2%
CC1=C(C(=O)Nc2ccccc2)C(c2ccc(N(C)C)cc2)NC(=O)N1 (configuration not stated) | inconclusive: 25%
COc1cc(C(c2c(C)[nH][nH]c2=O)c2c(C)[nH][nH]c2=O)cc(Cl)c1O | inconclusive: -0.3%

Compound | inhibition
Cc1ccc(N2C(=O)CSC2c2c(F)cccc2Cl)cc1 (configuration not stated) | inactive: 13.1%
O=C(O)Cc1ccc2ccc3ccccc3c2c1 | inconclusive: -22.1%
CCCc1cc(=O)[nH]c(SCC(=O)N(C)Cc2ccccc2)n1 | inconclusive: 15%
Cc1ccc(S(=O)(=O)N2CCOC23CCN(C(=O)C(=O)NCc2ccccc2)CC3)cc1 | inconclusive: 9.1%
COc1ccc2nccnc2c1[N+](=O)[O-] | inconclusive: -20.6%
Cc1ccc(/C=C/C(=O)NC(=S)Nc2ccc(S(=O)(=O)Nc3cc(C)on3)cc2)cc1 | inactive: 12.7%
COc1cc2c(cc1CNC[C@H]1O[C@@H](n3ccc(N)nc3=O)[C@H](O)[C@@H]1O)OCO2 | inactive: -7.7%
Cc1ccc(C)c(NC(=O)CCC(=O)N/N=C/c2ccc[nH]2)c1 | inactive: -2.6%
CC(C)(C)c1cc(=O)n(-c2ccccc2)[nH]1 | inactive: -9.9%
COCCOC(=O)C1=C(C)NC2=C(C(=O)CC(C)(C)C2)C1c1cccnc1 (configuration not stated) | inactive: -0.1%
COc1ccccc1N1CCN(CC(=O)Nc2nc(C)c(C(=O)N(C)C)s2)CC1 | inconclusive: 19.5%
CCOC(=O)/C(C(N)=NCC(C)C)=C(/O)c1ccccc1 | inactive: -7.5%
Cc1cccc(C)c1NC(=O)c1cccnc1 | inconclusive: -25.2%
CCC(C)Nc1nc2c(c(=O)[nH]c(=O)n2C)n1CCCc1ccccc1 (configuration not stated) | inconclusive: 3.2%
O=C(Oc1ccc2c(=O)c(Oc3ccc4ccccc4c3)coc2c1)c1cncc(Br)c1 | active: 35.7%
NC(=O)CN(C/C=C/c1ccccc1)C/C=C/c1ccccc1 | inconclusive: -22.1%
Cc1cc(NC(=O)NN2CCOCC2)nn1-c1c(Cl)cccc1Cl | inconclusive: -85%
CCN(CC)CCN1C(=O)C(=O)/C(=C(/O)c2cccc(OC)c2)C1c1ccccn1 (configuration not stated) | inconclusive: -12.6%
O=C(Nc1c(-c2ccccc2)nc2ccccn12)c1cccc(F)c1 | active: 35.8%
O=C(Cn1cnc2ccccc21)c1ccccc1 | inconclusive: -1.4%
O=C(CN1CCN(Cc2ccccc2)CC1)N/N=C/C=C/c1ccccc1[N+](=O)[O-] | inactive: 0.5%
Cc1ccccc1C(=O)N1CCC(C(=O)Nc2ccc(S(=O)(=O)N3CCCC3)cc2)CC1 | inconclusive: -2.1%
COc1ccc(NC(C)=O)cc1NC(=O)c1cccc(S(=O)(=O)N2CCc3ccccc32)c1 | inconclusive: 23.6%

Molecules shown so far with a tert-butyl group:
Compound | inhibition
CC(C)(C)OC(=O)NCCCCCc1nnc(SCc2c(F)cccc2Cl)o1 | active: 58.7%
COc1ccc2nc(/C=N/NC(=O)CCCCCNC(=O)OC(C)(C)C)ccc2c1 | inconclusive: -76.5%
CC(C)(C)c1cc(=O)n(-c2ccccc2)[nH]1 | inactive: -9.9%
